# Experimental data published in publication PMC4730607.
# Protein sequences, listed by entry. Tags and fused reporters are not part of them. Residues count along the entry.
# UniProt Q9UBX2, 19-152: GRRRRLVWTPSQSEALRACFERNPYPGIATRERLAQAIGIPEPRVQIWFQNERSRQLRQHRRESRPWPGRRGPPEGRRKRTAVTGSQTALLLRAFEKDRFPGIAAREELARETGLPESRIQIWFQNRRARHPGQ
# Assays:
# [1] = biological target: DUX4 DNA-binding domain (DUX4-HD, both homeodomains) (UniProt Q9UBX2); assay: competition with a labelled probe; conditions: vs FAM-CT, Direct EMSA: 10 uL 100 uM probe + 20 uL 250 uM protein (protein stock in 500 mM NaCl, 20 mM Tris-Cl pH 7.4), 1 h on ice, 3% agarose, EtBr, recombinant protein, residues 19-152
# [2] = biological target: DUX4 DNA-binding domain (DUX4-HD, both homeodomains) (UniProt Q9UBX2); assay: EMSA; conditions: excess protein; Direct EMSA: 10 uL 100 uM probe + 20 uL 250 uM protein (protein stock in 500 mM NaCl, 20 mM Tris-Cl pH 7.4), 1 h on ice, 3% agarose, EtBr; recombinant protein; residues 19-152
Sequence,binding result [1],binding result [2],binding result ([1]; very weak)
GGCAGTCCAGCGTAATCAAGTCGGC (double strand) [DUX4(half)],no binding,–,–
GGCAGTCTAATTAGCTTTAGTCGGC (double strand) [SELEX3],–,binds more weakly,binds more weakly
GGCAGTCTAATTGAATCAAGTCGGC (double strand) [MALR],binds more weakly,–,–
GGCAGTCTTCTAATTAGTAGTCGGC (double strand) [Pitx1-25],no binding,–,–

# For some assays here: Negatives hold for the conditions tested. For some assays here: At least one verdict was read from the data and is not stated in words by the source. Weaker means in comparison with the reference protein, sequence or condition of that experiment. For some assays here: The exact form of at least one protein or probe is not confirmed.
